Reference: publication PMC7819943, “Rice protein-binding microarrays: a tool to detect cis-acting elements near promoter regions in rice”
This is one part of the list.

Sequences of proteins named here, by UniProt entry; tags and fusion partners are left off.
UniProt Q0JBA9, entry or part of it: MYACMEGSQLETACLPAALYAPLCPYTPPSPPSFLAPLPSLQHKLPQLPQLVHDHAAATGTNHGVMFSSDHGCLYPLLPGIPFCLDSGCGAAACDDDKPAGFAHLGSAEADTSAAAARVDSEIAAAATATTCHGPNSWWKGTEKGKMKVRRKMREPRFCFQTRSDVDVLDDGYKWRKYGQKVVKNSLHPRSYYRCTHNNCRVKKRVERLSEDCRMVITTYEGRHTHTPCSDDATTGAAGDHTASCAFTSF

biological target: OsWRKY34 (Oryza sativa, UniProt Q0JBA9 1-250); experiment: protein-binding microarray (RPBM); PBS, 2% BSA, 51.3 ng/ul salmon testes DNA, 50 uM zinc acetate, 200 nM TF, 25 C, 1 h; high values mean tight binding; conditions: protein: recombinant; tags: N-terminal polyhistidine and DsRed monomer fusion (pET32a); label: CyDye5-dUTP incorporated in the synthesized complementary strand; 3' TTTTT single-stranded linker to array surface; dsDNA, one strand shown
Procedure, shortened: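 Using Ni–NTA, transcription factors fused N-terminally to polyhistidine and DsRed were purified after expression in E. coli BL21-CodonPlus. These were incubated at 200 nM with a blocked, double-stranded custom Agilent array for 1 h at 25 °C in a buffer containing 50 µM zinc acetate, and the array was washed. The binding signal is per-feature fluorescence intensity (arbitrary units) on an Axon 4000B scanner.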

Sequence	binding signal
CTCCATAGTCTCTGAAGCTCCTCACAGTTCAGTTCTAACCCGGAGTCACCTAGTGCAG	9020 fluorescence intensity (a.u.)
CGCTGCGCTAATCACGCGCGGTCAGACGTTGACTACCATGCGGAGTCACCTAGTGCAG	9590 fluorescence intensity (a.u.)
GATGATGGCTATATCTTGCACGTTGCTTTCTTATGACATTCGGAGTCACCTAGTGCAG	9630 fluorescence intensity (a.u.)
GTTGTTCTTCTTCAGTTCTTTTCTCTCTCTCTGTCTCCTGCGGAGTCACCTAGTGCAG	8290 fluorescence intensity (a.u.)
TTCGGGAATAGTGGGGAAGGAGGAAGAGTGGGTCATCTAGCGGAGTCACCTAGTGCAG	8910 fluorescence intensity (a.u.)
TGTTTTTCCTATCCTTTATTTCTTTATTCCTATAATACGTCGGAGTCACCTAGTGCAG	9150 fluorescence intensity (a.u.)
ATTTAAGTTTTCGAATTATAGTATTCAGCATGTACGTATACGGAGTCACCTAGTGCAG	8480 fluorescence intensity (a.u.)
ATGACTCACCTTGTTTTGCATATCTTCCAGGTATTCTCTTCGGAGTCACCTAGTGCAG	11200 fluorescence intensity (a.u.)
CTGAATTGTTTATTTCGCCCGCACTGGACTGCACGCTAACCGGAGTCACCTAGTGCAG	8260 fluorescence intensity (a.u.)
CAGTTACTTTTAATTTTGTCACTACGTGCACTCGCGACATCGGAGTCACCTAGTGCAG	8050 fluorescence intensity (a.u.)
CCGCAAAATCCATCCCCGCCTTGCTGCCTTACCATATCCTCGGAGTCACCTAGTGCAG	12300 fluorescence intensity (a.u.)
TCATTCTTTTTTTTAACAACAAATATTCTCTGGCTTATATCGGAGTCACCTAGTGCAG	8530 fluorescence intensity (a.u.)
TCCTTGAGTCTGTGAGTGCCACCATTGGGAATTTCCTTGACGGAGTCACCTAGTGCAG	8470 fluorescence intensity (a.u.)
ACCTGACGATTCCCCTAAGCGCCGCTCTCCCCGCTTCCATCGGAGTCACCTAGTGCAG	8460 fluorescence intensity (a.u.)
CCCTGTATCCTTCTCTGCTTCGTTGGTCACCATCGGTTACCGGAGTCACCTAGTGCAG	8520 fluorescence intensity (a.u.)
TTCCAGTTCGTTTCGTTGCCGTTCGCTCAGCGCTCGCTTCCGGAGTCACCTAGTGCAG	8030 fluorescence intensity (a.u.)
GCATCTCTCTCCTTCCAAACCATCCCGCAGATTAGCAGCACGGAGTCACCTAGTGCAG	8230 fluorescence intensity (a.u.)
CCCGCCGTCTTCCCCGTCTCCGGCGGCTTCCCGCCGCCGGCGGAGTCACCTAGTGCAG	8580 fluorescence intensity (a.u.)
CTAAATGGTAGACATCCTTTTCTTGCTATCTCTCTCAACACGGAGTCACCTAGTGCAG	8850 fluorescence intensity (a.u.)
CATGTCGCCCTCAAGCCCCGCGCGCCATCATGTCGTCCTCCGGAGTCACCTAGTGCAG	8200 fluorescence intensity (a.u.)
TACGCTACACACGCAATCTCACCAGCGCCCGCGCGCGCGCCGGAGTCACCTAGTGCAG	8050 fluorescence intensity (a.u.)

As entered above.
Entry for CCGCAAAATCCATCCCCGCCTTGCTGCCTTACCATATCCTCGGAGTCACCTAGTGCAG under binding signal: 12300 fluorescence intensity (a.u.)
Entry for ATGACTCACCTTGTTTTGCATATCTTCCAGGTATTCTCTTCGGAGTCACCTAGTGCAG under binding signal: 11200 fluorescence intensity (a.u.)
Entry for GATGATGGCTATATCTTGCACGTTGCTTTCTTATGACATTCGGAGTCACCTAGTGCAG under binding signal: 9630 fluorescence intensity (a.u.)
Entry for GCATCTCTCTCCTTCCAAACCATCCCGCAGATTAGCAGCACGGAGTCACCTAGTGCAG under binding signal: 8230 fluorescence intensity (a.u.)

Remaining list, next part:

Sequence	binding signal
TGTTGCAGTGGATTTTTGTACCGTTTAATATTTTCCATCTCGGAGTCACCTAGTGCAG	11900 fluorescence intensity (a.u.)
GTTTGGTTTGGTTTGAAGAGGTCATATATGAATCACTCACCGGAGTCACCTAGTGCAG	8150 fluorescence intensity (a.u.)
CCCAACGCTACCTGTGAAGCCATATTTGCATCATCGTTCCCGGAGTCACCTAGTGCAG	9960 fluorescence intensity (a.u.)
CAGCACTCGTTTCCTTATTGAATCACATGGAGAATCTTTACGGAGTCACCTAGTGCAG	9410 fluorescence intensity (a.u.)
ATCTTATCGGATTTGGTTCTGGTCCAGAGGTTGACCAGAACGGAGTCACCTAGTGCAG	8510 fluorescence intensity (a.u.)
AGGTGGAGGTGGAGGTGGAGGAGGGCGGCGGGTGGCGATGCGGAGTCACCTAGTGCAG	16500 fluorescence intensity (a.u.)
GCCTGGCGCGCCTCTCCTGCTCTGTTGGACCGCCGCGCCCCGGAGTCACCTAGTGCAG	12000 fluorescence intensity (a.u.)
CCATTACCCGTACCCGTTAGCAGGCAGCTGCACCATAAGCCGGAGTCACCTAGTGCAG	8540 fluorescence intensity (a.u.)
AATTTGCCACACATCCTAGTTTAATTTATTTCCGATTAATCGGAGTCACCTAGTGCAG	8160 fluorescence intensity (a.u.)
GCGTAGGCCCATCAAAAACCGATCCGGCCACTCTTCTCCGCGGAGTCACCTAGTGCAG	8120 fluorescence intensity (a.u.)
TCCCCGTCTACCACACGCCCGTGGCCGCGACCGCGAGAGCCGGAGTCACCTAGTGCAG	8750 fluorescence intensity (a.u.)
CCCACCTTTCGGTCTTCTTATTTAGTTCCAAACTTTTTCTCGGAGTCACCTAGTGCAG	10300 fluorescence intensity (a.u.)
CGCATATGCCTGCTCATCACTTTCTCCTTGTAGAGTTCTACGGAGTCACCTAGTGCAG	8890 fluorescence intensity (a.u.)
TCGCCACCTCACCTCACCTCACCTCACTCGCGCCGCTATACGGAGTCACCTAGTGCAG	8560 fluorescence intensity (a.u.)
TAAGTATTCTATTTGCTGCACCATGCATACACGTTAGTTGCGGAGTCACCTAGTGCAG	8640 fluorescence intensity (a.u.)
TTTCAGTACTTTGCGAGCATTTATACTTATACAAGAAATACGGAGTCACCTAGTGCAG	8580 fluorescence intensity (a.u.)
CCACCGAGCTCCGGGCCGGCCGCCACCCTTCATCGCCAGACGGAGTCACCTAGTGCAG	10100 fluorescence intensity (a.u.)
TGAGAGCGGGCGTGTGGGTGGGAAAGCGACTATAGATGGCCGGAGTCACCTAGTGCAG	9330 fluorescence intensity (a.u.)
CTTGACTGACCACTGCAACTTCGTCTCCTCTCCCCTTAAACGGAGTCACCTAGTGCAG	11300 fluorescence intensity (a.u.)
CGTCGCCGCAAAACCCCACGTCCCCACCTCGACTCGCCTCCGGAGTCACCTAGTGCAG	8460 fluorescence intensity (a.u.)
TTCGTTTTTCTTTTTTTTTTGATGGGGAGGTTGTAAAATGCGGAGTCACCTAGTGCAG	13800 fluorescence intensity (a.u.)
